Data taken from publication PMC8001409.
Positions count from the first letter of the chain named. Names may count otherwise. Results are given in words; binding and its absence hold for the method and conditions named. In cells and extracts the contact can be indirect. Some entries that bind do so weakly or less than the wild type. Tags and fused reporters may be left off the sequences shown. Each block holds one binder with its values, some of them ahead of it.

Chains of the proteins cited; added tags and fusions are not shown.
UniProt P03372: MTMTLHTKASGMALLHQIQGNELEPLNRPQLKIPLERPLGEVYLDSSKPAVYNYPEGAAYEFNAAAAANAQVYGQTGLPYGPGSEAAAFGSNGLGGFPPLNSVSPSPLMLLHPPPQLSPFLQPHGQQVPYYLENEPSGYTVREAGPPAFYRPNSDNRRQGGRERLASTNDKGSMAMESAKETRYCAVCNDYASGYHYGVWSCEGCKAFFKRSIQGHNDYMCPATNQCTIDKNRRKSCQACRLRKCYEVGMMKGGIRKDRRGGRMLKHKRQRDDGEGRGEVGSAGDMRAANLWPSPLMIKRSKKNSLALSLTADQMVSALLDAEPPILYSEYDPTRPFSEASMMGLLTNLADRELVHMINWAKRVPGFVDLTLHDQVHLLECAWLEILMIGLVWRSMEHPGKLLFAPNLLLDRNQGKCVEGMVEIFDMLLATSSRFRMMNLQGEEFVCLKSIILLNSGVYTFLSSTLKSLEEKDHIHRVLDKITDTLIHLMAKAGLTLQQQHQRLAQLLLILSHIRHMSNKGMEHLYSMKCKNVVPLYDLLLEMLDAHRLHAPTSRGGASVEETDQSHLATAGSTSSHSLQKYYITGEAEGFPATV

Target: FLAG-ERα (estrogen receptor α) (UniProt P03372)
Experiment: co-IP; COS-1 cells co-transfected with FLAG- or 3xFLAG-ERα constructs and GFP-PARP7 constructs. Full-length ERα samples were treated with DMSO or E2 for 24 h; truncated variants were not treated with E2. Lysis in 200 mM NaCl, 20 mM Hepes, 1% Nonidet P-40. Anti-FLAG (M2) with Protein G Dynabeads, 2 h at 4 °C, five washes. Blotted with anti-GFP, anti-FLAG and anti-ADP-ribose.

binding: binds
B1: GFP-PARP7 (enzyme, UniProt Q7Z3E1 1-657)
chain: MEMETTEPEPDCVVQPPSPPDDFSCQMRLSEKITPLKTCFKKKDQKRLGTGTLRSLRPILNTLLESGSLDGVFRSRNQSTDENSLHEPMMKKAMEINSSCPPAENNMSVLIPDRTNVGDQIPEAHPSTEAPERVVPIQDHSFPSETLSGTVADSTPAHFQTDLLHPVSSDVPTSPDCLDKVIDYVPGIFQENSFTIQYILDTSDKLSTELFQDKSEEASLDLVFELVNQLQYHTHQENGIEICMDFLQGTCIYGRDCLKHHTVLPYHWQIKRTTTQKWQSVFNDSQEHLERFYCNPENDRMRMKYGGQEFWADLNAMNVYETTEFDQLRRLSTPPSSNVNSIYHTVWKFFCRDHFGWREYPESVIRLIEEANSRGLKEVRFMMWNNHYILHNSFFRREIKRRPLFRSCFILLPYLQTLGGVPTQAPPPLEATSSSQIICPDGVTSANFYPETWVYMHPSQDFIQVPVSAEDKSYRIIYNLFHKTVPEFKYRILQILRVQNQFLWEKYKRKKEYMNRKMFGRDRIINERHLFHGTSQDVVDGICKHNFDPRVCGKHATMFGQGSYFAKKASYSHNFSKKSSKGVHFMFLAKVLTGRYTMGSHGMRRPPPVNPGSVTSDLYDSCVDNFFEPQIFVIFNDDQSYPYFVIQYEEVSNTVSI

binding: binds
B2: GFP-PARP7 H532A (catalytically inactive mutant) (enzyme, UniProt Q7Z3E1 1-657)
chain: B1 chain with H532A
